No constants are given. Whether binding was seen depends on the method and setting. In cells and extracts the contact can be indirect. Some results given as binding are weak or reduced against the parent protein; the word gives no strength. Values belong to the binder of their own block, whether it stands above or below them.
Biological target: AKT serine/threonine kinase 1 (human (endogenous in Huh7)) (UniProt P31749)
Assay: co-IP; cell lysate (500 uL) pre-cleared, incubated overnight at 4 °C with protein A and G agarose beads and 5 ug indicated antibody; beads washed 3 times; western blot; Huh7 / HCC cells

By UniProt entry, the sequences of proteins in these tests, tags left out.
UniProt P31749: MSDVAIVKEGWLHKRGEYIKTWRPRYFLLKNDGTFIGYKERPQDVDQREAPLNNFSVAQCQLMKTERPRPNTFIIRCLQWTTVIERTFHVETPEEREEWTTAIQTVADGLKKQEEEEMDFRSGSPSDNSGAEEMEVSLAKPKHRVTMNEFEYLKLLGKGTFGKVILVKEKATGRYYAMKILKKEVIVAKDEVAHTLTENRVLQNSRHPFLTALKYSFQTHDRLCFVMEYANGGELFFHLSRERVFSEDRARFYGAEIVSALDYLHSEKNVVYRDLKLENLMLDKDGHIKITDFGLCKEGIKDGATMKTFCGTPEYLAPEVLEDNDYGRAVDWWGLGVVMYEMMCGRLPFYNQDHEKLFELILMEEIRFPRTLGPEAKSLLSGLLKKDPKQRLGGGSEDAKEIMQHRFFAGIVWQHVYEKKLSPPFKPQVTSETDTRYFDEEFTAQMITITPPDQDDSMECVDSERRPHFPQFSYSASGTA

- binding: no binding
B1: farnesyl-diphosphate farnesyltransferase 1 (protein, UniProt P37268 1-417)
chain: MEFVKCLGHPEEFYNLVRFRIGGKRKVMPKMDQDSLSSSLKTCYKYLNQTSRSFAAVIQALDGEMRNAVCIFYLVLRALDTLEDDMTISVEKKVPLLHNFHSFLYQPDWRFMESKEKDRQVLEDFPTISLEFRNLAEKYQTVIADICRRMGIGMAEFLDKHVTSEQEWDKYCHYVAGLVGIGLSRLFSASEFEDPLVGEDTERANSMGLFLQKTNIIRDYLEDQQGGREFWPQEVWSRYVKKLGDFAKPENIDLAVQCLNELITNALHHIPDVITYLSRLRNQSVFNFCAIPQVMAIATLAACYNNQQVFKGAVKIRKGQAVTLMMDATNMPAVKAIIYQYMEEIYHRIPDSDPSSSKTRQIISTIRTQNLPNCQLISRSHYSPIYLSFVMLLAALSWQYLTTLSQVTEDYVQTGEH

- binding: binds
B2: aldolase B (protein, UniProt P05062 1-364)
chain: MAHRFPALTQEQKKELSEIAQSIVANGKGILAADESVGTMGNRLQRIKVENTEENRRQFREILFSVDSSINQSIGGVILFHETLYQKDSQGKLFRNILKEKGIVVGIKLDQGGAPLAGTNKETTIQGLDGLSERCAQYKKDGVDFGKWRAVLRIADQCPSSLAIQENANALARYASICQQNGLVPIVEPEVIPDGDHDLEHCQYVTEKVLAAVYKALNDHHVYLEGTLLKPNMVTAGHACTKKYTPEQVAMATVTALHRTVPAAVPGICFLSGGMSEEDATLNLNAINLCPLPKPWKLSFSYGRALQASALAAWGGKAANKEATQEAFMKRAMANCQAAKGQYVHTGSSGAASTQSLFTACYTY
